In the supplement of paper PMC10849652:
Some of the results follow.

By UniProt entry, the sequences of proteins in these tests, tags left out. Where a name states a change or a piece, a line headed by the entry shows the natural chain unless it says otherwise.
UniProt P42229: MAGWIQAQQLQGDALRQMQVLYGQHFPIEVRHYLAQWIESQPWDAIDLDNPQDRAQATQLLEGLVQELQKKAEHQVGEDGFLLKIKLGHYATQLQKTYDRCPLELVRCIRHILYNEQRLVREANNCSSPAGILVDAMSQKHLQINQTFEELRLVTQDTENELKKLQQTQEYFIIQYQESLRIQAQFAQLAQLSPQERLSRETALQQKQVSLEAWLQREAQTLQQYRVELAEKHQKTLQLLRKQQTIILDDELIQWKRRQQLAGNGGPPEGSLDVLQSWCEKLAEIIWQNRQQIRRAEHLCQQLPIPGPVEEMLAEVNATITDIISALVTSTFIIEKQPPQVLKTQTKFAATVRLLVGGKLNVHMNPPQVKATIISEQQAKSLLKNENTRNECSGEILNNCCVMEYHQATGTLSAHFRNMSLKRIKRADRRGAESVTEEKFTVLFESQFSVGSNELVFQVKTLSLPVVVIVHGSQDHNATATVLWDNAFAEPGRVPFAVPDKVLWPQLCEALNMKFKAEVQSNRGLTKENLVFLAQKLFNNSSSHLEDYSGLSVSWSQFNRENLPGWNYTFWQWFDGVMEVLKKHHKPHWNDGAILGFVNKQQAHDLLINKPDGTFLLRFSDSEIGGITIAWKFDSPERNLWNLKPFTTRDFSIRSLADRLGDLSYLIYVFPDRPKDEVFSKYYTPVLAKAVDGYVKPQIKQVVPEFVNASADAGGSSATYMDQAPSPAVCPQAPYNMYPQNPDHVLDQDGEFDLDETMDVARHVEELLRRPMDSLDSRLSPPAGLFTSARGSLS
UniProt Q8N0X7: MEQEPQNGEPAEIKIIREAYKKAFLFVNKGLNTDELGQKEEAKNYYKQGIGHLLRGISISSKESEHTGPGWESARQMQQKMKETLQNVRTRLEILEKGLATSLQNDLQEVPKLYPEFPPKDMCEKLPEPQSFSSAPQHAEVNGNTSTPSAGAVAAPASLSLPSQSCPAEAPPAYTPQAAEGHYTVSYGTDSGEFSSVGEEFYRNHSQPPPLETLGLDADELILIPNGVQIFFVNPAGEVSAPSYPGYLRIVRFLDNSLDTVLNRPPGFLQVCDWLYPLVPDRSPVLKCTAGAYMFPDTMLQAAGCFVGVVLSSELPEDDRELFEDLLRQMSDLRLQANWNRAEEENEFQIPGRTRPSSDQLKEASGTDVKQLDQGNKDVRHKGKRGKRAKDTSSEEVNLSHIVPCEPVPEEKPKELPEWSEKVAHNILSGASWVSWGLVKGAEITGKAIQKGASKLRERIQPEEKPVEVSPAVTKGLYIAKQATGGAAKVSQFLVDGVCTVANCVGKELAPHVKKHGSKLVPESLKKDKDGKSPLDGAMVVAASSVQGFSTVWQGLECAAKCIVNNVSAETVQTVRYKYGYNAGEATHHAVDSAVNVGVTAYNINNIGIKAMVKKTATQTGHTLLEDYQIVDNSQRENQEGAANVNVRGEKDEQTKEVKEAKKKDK
UniProt Q86XZ4: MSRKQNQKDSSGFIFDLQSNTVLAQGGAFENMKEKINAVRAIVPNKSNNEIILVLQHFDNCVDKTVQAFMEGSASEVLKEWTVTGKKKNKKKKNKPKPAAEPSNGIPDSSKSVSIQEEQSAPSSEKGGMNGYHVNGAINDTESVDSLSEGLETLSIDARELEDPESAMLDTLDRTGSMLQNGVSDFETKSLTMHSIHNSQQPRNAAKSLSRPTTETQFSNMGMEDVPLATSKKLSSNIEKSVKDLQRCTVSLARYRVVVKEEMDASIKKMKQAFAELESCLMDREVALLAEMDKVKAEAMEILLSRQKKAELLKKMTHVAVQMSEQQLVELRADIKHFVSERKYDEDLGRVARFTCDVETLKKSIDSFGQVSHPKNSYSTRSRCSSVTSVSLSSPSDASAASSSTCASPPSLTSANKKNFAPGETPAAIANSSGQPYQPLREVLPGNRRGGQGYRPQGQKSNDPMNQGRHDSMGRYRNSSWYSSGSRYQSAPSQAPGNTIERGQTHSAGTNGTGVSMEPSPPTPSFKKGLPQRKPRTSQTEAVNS
UniProt P35325: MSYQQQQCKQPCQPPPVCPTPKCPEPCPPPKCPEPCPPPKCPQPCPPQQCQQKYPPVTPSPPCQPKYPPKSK
UniProt Q9BWG4: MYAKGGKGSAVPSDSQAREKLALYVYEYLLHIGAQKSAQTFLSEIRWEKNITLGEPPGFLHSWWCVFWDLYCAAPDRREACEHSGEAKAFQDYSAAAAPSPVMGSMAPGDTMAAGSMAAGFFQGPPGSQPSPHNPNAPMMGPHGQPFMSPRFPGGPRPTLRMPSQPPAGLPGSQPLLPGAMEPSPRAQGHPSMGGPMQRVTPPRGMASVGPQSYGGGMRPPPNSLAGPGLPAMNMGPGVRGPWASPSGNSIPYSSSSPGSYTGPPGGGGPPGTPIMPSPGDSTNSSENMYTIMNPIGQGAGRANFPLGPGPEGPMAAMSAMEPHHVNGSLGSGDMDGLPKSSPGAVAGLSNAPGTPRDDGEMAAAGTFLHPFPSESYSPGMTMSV
UniProt Q9UHB9: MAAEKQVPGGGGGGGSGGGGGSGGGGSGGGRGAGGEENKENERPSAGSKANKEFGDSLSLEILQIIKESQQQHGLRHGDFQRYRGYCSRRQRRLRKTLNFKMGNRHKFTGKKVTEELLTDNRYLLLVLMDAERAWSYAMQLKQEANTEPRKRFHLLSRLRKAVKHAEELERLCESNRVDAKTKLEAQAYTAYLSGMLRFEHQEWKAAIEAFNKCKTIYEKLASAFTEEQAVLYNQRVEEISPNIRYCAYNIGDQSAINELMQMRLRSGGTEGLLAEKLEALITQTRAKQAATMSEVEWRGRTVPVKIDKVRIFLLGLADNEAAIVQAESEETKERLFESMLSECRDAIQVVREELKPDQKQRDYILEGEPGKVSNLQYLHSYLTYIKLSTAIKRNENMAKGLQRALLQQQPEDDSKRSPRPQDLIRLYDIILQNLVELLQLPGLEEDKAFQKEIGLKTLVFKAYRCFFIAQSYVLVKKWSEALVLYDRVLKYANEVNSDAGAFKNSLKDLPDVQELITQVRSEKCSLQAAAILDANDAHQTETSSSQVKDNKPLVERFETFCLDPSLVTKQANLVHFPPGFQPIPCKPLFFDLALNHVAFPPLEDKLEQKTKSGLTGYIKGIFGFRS
UniProt Q9NUQ6: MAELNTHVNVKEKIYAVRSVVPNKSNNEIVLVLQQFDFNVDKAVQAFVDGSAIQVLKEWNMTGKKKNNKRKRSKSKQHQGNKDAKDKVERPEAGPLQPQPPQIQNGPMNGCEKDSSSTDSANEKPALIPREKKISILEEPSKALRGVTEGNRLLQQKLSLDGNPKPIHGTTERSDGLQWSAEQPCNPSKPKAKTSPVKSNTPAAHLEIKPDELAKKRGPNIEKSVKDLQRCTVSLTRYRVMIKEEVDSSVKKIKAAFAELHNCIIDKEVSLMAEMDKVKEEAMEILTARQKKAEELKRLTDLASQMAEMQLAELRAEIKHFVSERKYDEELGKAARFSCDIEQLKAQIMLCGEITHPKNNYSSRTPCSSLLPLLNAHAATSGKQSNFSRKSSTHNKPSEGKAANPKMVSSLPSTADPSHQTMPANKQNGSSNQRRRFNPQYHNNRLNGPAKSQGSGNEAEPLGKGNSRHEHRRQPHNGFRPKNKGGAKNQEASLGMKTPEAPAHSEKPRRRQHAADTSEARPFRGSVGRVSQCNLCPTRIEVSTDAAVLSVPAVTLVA
UniProt Q13103: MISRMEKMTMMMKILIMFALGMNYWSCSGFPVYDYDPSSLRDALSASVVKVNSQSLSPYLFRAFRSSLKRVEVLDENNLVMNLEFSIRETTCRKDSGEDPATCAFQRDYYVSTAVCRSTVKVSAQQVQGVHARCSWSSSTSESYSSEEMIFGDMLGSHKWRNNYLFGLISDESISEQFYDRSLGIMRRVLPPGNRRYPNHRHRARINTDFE

Experiments:
Test in all cases: log2 fold change, soluble protein after heating vs DMSO (PISA); higher = thermal stabilisation; K562 lysate, 10 uM; active = over 0.2 and 3.5 SD of the protein, either way, in both replicates (recomputed)
[1] = compound: C=CC(=O)N1CCC[C@@H](n2nc(-c3ccc(Oc4ccccc4)cc3)c3c(N)ncnc32)C1 [ibrutinib]
Summary of the method: (§1)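 Following dounce homogenisation of K562 pellets in PBS pH 7.4 with 1 mM MgCl2, crude extract at 1 mg/mL protein was incubated for 30 min with 10 μM compound. Aliquots were then heated for 3 min over 48°C-58°C and pooled, NP-40 was added to 0.5% at 4°C, and soluble protein was recovered as the supernatant at 21,000xg for 90 min. Channel-sum-equalised TMTpro 16plex LC-MS/MS quantified this protein. Each value, from duplicates, is a log-two fold change in thermal stability relative to solvent controls.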

[2] = compound: CC(=O)c1cnc2ccc(-c3cc(Cl)c(O)c(Cl)c3)nc2c1N[C@H]1CC[C@H](CN(C)C)CC1
Summary of the method: as §1

[3] = compound: CC(C)(C)Cn1c(N)nc2ccc(-c3[nH]c(C(C)(C)C)nc3-c3ccc(F)cc3)nc21 [ralimetinib]
Summary of the method: as §1

[4] = compound: CC(C)(O)CC(=O)NCCn1ccc2ncnc(Nc3ccc(Oc4cccc(C(F)(F)F)c4)c(Cl)c3)c21
Summary of the method: as §1

[5] = compound: CC(C)C1=C2N=C(C=C(N2N=C1)NCC3=CC=CC=C3)NCCCCCCN
Summary of the method: as §1

[6] = compound: CC1=C(C(CC(=O)N1)C2=CC=C(C=C2)C(F)(F)F)C(=O)NC3=C(C=C4C(=C3)C=NN4)F
Summary of the method: as §1

[7] = compound: CC1=C(C2=C(C=C1)C(=O)C3=CC=CC=C3N2CCCN)C
Summary of the method: as §1

[8] = compound: CC1=C(C=C(C=C1)NC(=O)C2=CC(=CC=C2)C(C)(C)C#N)NC3=CC4=C(C=C3)N=CN(C4=O)C
Summary of the method: as §1

[9] = compound: CC1=C(C=C(C=C1)NC(=O)C2=CC(=CC=C2)N(C)C)NC(=O)C3=CC=C(C=C3)O
Summary of the method: as §1

[10] = compound: CC1=CC=C(C=C1)SC2=C3C=C(SC3=CN=C2)C(=O)N
Summary of the method: as §1

[11] = compound: CCCS(=O)(=O)Nc1ccc(F)c(C(=O)c2c[nH]c3ncc(-c4ccc(Cl)cc4)cc23)c1F [vemurafenib]
Summary of the method: as §1

[12] = compound: CCCS(=O)(=O)Nc1ccc(F)c(C(=O)c2c[nH]c3ncc(Cl)cc23)c1F
Summary of the method: as §1

[13] = compound: CCN(CCCOc1ccc2c(Nc3cc(CC(=O)Nc4cccc(F)c4)[nH]n3)ncnc2c1)CCOP(=O)(O)O [barasertib]
Summary of the method: as §1

[14] = compound: CC[C@@H]1C(=O)N(C)c2cnc(Nc3ccc(C(=O)NC4CCN(C)CC4)cc3OC)nc2N1C1CCCC1
Summary of the method: as §1

[15] = compound: CC[C@@H]1C(=O)N(C)c2cnc(Nc3ccc(C(=O)N[C@H]4CC[C@H](N5CCN(CC6CC6)CC5)CC4)cc3OC)nc2N1C(C)C [volasertib]
Summary of the method: as §1

[16] = compound: CCn1c(C(=O)N(C2CC2)C2CC2)cc2c3c(ncn3C)c(Nc3cc(C)n(C)n3)nc21
Summary of the method: as §1

[17] = compound: CCn1cc(-c2ccnc3[nH]c(-c4cccc(CN(C)C)c4)cc23)c(-c2ccc(NC(=O)N(C)C)cc2)n1
Summary of the method: as §1

[18] = compound: CN1CCC(CNc2ccc3ncc(-c4cccc(OC(F)(F)F)c4)n3n2)CC1
Summary of the method: as §1

[19] = compound: CN1CCN(CCOc2cc(OC3CCOCC3)c3c(Nc4c(Cl)ccc5c4OCO5)ncnc3c2)CC1 [saracatinib]
Summary of the method: as §1

[20] = compound: CN1CCN(c2nc(C3=C(c4c[nH]c5ccccc45)C(=O)NC3=O)c3ccccc3n2)CC1 [sotrastaurin]
Summary of the method: as §1

Measured: log2 fold change

STAT5A (UniProt P42229)
inactive: [1] 0.012 | [2] 0.026 | [3] -0.004 | [4] 0.01 | [5] 0.025 | [6] -0.019 | [7] 0.021 | [8] 0.01 | [9] 0.021 | [10] -0.004 | [11] 0 | [12] 0.024 | [13] 0.042 | [14] -0.027 | [15] -0.044 | [16] -0.003 | [17] 0.044 | [18] -0.047 | [19] 0.021 | [20] -0.002

SPART (UniProt Q8N0X7)
inactive: [1] -0.039 | [2] -0.054 | [3] 0.017 | [4] -0.015 | [5] 0.01 | [6] 0.083 | [7] 0.027 | [8] -0.008 | [9] 0.017 | [10] -0.014 | [11] -0.02 | [12] 0.008 | [13] -0.038 | [14] 0.086 | [15] 0.024 | [16] -0.013 | [17] 0.015 | [18] -0.045 | [19] -0.009 | [20] 0.008

SPATS2 (UniProt Q86XZ4)
inactive: [1] -0.06 | [2] -0.069 | [3] -0.018 | [4] 0.03 | [5] 0.111 | [6] 0.077 | [7] -0.061 | [8] -0.007 | [9] -0.046 | [10] -0.001 | [11] -0.013 | [12] 0.032 | [13] 0.071 | [14] -0.175 | [15] -0.041 | [16] 0.128 | [17] 0.144 | [18] 0.038 | [19] -0.12 | [20] 0.031

SPRR2B (UniProt P35325)
inactive: [1] -0.01 | [2] -0.278 | [3] -0.038 | [4] -0.02 | [5] 0.167 | [8] 0.007 | [9] -0.026 | [10] -0.037 | [12] 0.004 | [13] 0.095 | [14] 0.184 | [15] -0.025 | [16] -0.011 | [17] 0.07 | [18] -0.048 | [20] 0.01

SSBP4 (UniProt Q9BWG4)
inactive: [1] 0.08 | [2] 0.006 | [6] 0.001 | [8] 0.006 | [10] -0.041 | [11] 0.174 | [12] -0.047 | [13] 0.125 | [14] 0.051 | [15] 0.005 | [17] -0.002 | [18] -0.043 | [20] 0.023

SRP68 (UniProt Q9UHB9)
inactive: [1] -0.071 | [2] -0.015 | [3] -0.019 | [4] -0.002 | [5] 0 | [6] 0.01 | [7] -0.045 | [8] -0.035 | [9] 0.009 | [10] 0.001 | [11] 0.028 | [12] 0.016 | [13] 0.017 | [14] 0.029 | [15] -0.022 | [16] -0.001 | [17] 0.178 | [18] -0.173 | [19] -0.005 | [20] 0.019

SRP14 (UniProt H0YLW0)
inactive: [1] -0.052 | [2] -0.057 | [3] -0.292 | [4] -0.362 | [5] 0.031 | [7] -0.261 | [8] 0.418 | [9] 0.061 | [10] -0.074 | [12] 0.013 | [13] 0.037 | [15] -0.02 | [16] -0.576 | [17] -0.199 | [18] 0.231 | [19] 0.069 | [20] -0.097

SPATS2L isoform 2 (UniProt Q9NUQ6)
inactive: [1] 0 | [2] -0.139 | [3] 0.019 | [4] -0.039 | [5] 0.127 | [6] -0.002 | [8] 0.026 | [9] 0.127 | [10] -0.06 | [11] 0.036 | [12] -0.097 | [13] 0.036 | [14] 0.062 | [15] 0.064 | [16] -0.008 | [17] 0.255 | [18] -0.192 | [20] 0.043

SPP2 (UniProt Q13103)
inactive: [1] 0.073 | [2] -0.104 | [10] 0.026 | [12] 0.089 | [13] -0.026 | [15] -0.087 | [17] -0.09 | [18] 0.098
